These are yes or no findings as the source states them, for the method shown. Some results given as binding are weak or reduced against the parent protein; the word gives no strength. Where a sequence is shown, tags or fusion partners need not be part of it.
Biological target: GST-Sumo2 fusion protein (UniProt P61957)
Test: pull-down; GST-Sumo2 kept bound to Glutathione Sepharose 4B; purified Flag-tagged Dcp1a incubated; western blot; both purified

Sequences of proteins named here, by UniProt entry; tags and fusion partners are left off.
UniProt P61957: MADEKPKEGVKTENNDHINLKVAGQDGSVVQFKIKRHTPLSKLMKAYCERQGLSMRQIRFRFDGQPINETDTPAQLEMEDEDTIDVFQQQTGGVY

binding: binds
B1: Flag-tagged wild-type Dcp1a, purified protein (protein, UniProt Q91YD3 1-602)
chain: MALSCSTVRPRRRGSALRSKMELLSRAEQEMSLAALKQHDPYITSIADLTGQVALYTFCPKANQWEKTDIEGTLFVYRRSASPYHGFTIVNRLNMHNLVEPVNKDLEFQLHEPFLLYRNASLSIYSIWFYDKNDCHRIAKLMADVVEEETRRSQQAARDKQSPSQANGCSDQRPIDILEMLSRAKDEYERNQMGGSNISSPGLQPSTQLSNLGSTETLEETPSGSQDKSAPSGHKHLTVEELFGTSLPKEQPTAMGLESEDTDKLLGDASQKEPSSFLPFPFEQSGGAPQSENLGIHSAAHHTVQPEVSTPVLITPASIAQSGDKHPPSYTLPLSPVLSPTLPAEAPTTQVPHLPRNSTMIQAVKTTPRQKSPLLNQPVPELSHSSLVASQSPFRAPVSLANPAGTALPSVDLLQKLRLTPQHDQIQAQPLGKGTMAPSFSSAAGQLATPESFIEPSSKTAAARAAVSASLSNMVLAPTLQSMQQNQDPEVFSQPKVLPSAIPIAGSPLVPATTTAVSSVLLSPSVFQQTVPRAADLERKASSPSPLTVGTAESQRKPSIILSKSQLQDTLIHLIKNDSSFLSTLHAVYLQVLTKNKDNHNL
